Results: paper PMC11952801
No constants are given. Whether binding was seen depends on the method and setting. Binding seen in cells or lysates may run through a third protein. For some assays here: Binding calls can cover weak binding; strength is not graded here. For some assays here: Sequences can lack the tags named with a protein. Values belong to the molecule of their own block, whether it stands above or below them.

Key:
[1] = target: T1, P2K1 (construct of the validation tests listed in Table 1 not told) (Arabidopsis thaliana) (UniProt Q9LSR8); test: split reporter; LCI assay as listed in Table 1 for candidates of the 2k KiC screen; no reference and no further description given
T1 sequence: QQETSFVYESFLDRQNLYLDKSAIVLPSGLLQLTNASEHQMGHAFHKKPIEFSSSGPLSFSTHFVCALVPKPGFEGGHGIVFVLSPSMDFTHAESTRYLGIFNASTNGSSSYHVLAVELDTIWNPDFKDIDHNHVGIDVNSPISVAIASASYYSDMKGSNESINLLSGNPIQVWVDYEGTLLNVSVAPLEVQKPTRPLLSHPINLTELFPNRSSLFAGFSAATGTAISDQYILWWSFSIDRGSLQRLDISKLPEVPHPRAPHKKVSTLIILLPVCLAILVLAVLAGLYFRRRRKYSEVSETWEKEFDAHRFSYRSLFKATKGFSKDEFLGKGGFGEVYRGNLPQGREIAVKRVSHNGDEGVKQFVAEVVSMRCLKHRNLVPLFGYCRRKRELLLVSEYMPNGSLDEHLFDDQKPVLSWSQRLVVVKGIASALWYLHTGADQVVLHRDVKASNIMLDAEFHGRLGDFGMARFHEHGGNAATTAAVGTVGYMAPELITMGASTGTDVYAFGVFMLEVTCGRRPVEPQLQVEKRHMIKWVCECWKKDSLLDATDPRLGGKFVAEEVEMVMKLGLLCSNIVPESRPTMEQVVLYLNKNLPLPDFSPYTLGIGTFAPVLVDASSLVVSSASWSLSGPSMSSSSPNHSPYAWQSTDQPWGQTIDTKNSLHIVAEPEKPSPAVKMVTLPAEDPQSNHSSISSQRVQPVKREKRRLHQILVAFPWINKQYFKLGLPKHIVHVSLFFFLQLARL

[2] = target: T2, P2K1-nLUC (Arabidopsis thaliana) (UniProt Q9LSR8); test: split reporter; split-luciferase complementation imaging (LCI); nLUC and cLUC fusions driven by the CaMV 35S promoter, co-infiltrated into 4-week-old N. benthamiana leaves; 3 days at 28 °C; 5 mM D-luciferin sprayed; luminescence by CCD camera; also with added ATP
T2 sequence: T1 sequence

[3] = target: T3, P2K1-nYFP (Arabidopsis thaliana) (UniProt Q9LSR8); test: split reporter; BiFC; nYFP and cYFP fusions in Arabidopsis protoplasts (PEG-mediated transformation), 21 °C for 24 h in the dark; YFP fluorescence by microscopy, FM4-64 as plasma membrane marker
T3 sequence: T1 sequence

[4] = target: T4, HA-tagged P2K1 (Arabidopsis thaliana) (UniProt Q9LSR8); test: co-IP; HA-tagged P2K1 coexpressed with Myc-tagged ILK4 or ILK5 in N. benthamiana leaves, with and without exogenous ATP; total protein extract (50 mM Tris-HCl pH 7.5, 150 mM NaCl, 0.5% Triton X-100); anti-HA agarose beads overnight at 4 °C; blots with anti-HA and anti-Myc
T4 sequence: T1 sequence

[5] = target: ILK4-cLUC (Arabidopsis thaliana); test: split reporter; split-luciferase complementation imaging (LCI); nLUC and cLUC fusions driven by the CaMV 35S promoter, co-infiltrated into 4-week-old N. benthamiana leaves; 3 days at 28 °C; 5 mM D-luciferin sprayed; luminescence by CCD camera; also with added ATP
[6] = target: ILK4-cYFP (Arabidopsis thaliana); test: split reporter; BiFC; nYFP and cYFP fusions in Arabidopsis protoplasts (PEG-mediated transformation), 21 °C for 24 h in the dark; YFP fluorescence by microscopy, FM4-64 as plasma membrane marker

Molecule: COP1-interacting protein-related (At5g43310) (Arabidopsis thaliana)
binding [1]: no binding

Molecule: ILK4-cLUC (Arabidopsis thaliana) (enzyme)
binding [2]: binds

Molecule: ILK4-cYFP (Arabidopsis thaliana) (enzyme)
binding [3]: binds

B1: MKK4 (nLUC fusion) (enzyme, UniProt O80397 1-366)
chain: MRPIQSPPGVSVPVKSRPRRRPDLTLPLPQRDVSLAVPLPLPPTSGGSGGSSGSAPSSGGSASSTNTNSSIEAKNYSDLVRGNRIGSGAGGTVYKVIHRPSSRLYALKVIYGNHEETVRRQICREIEILRDVNHPNVVKCHEMFDQNGEIQVLLEFMDKGSLEGAHVWKEQQLADLSRQILSGLAYLHSRHIVHRDIKPSNLLINSAKNVKIADFGVSRILAQTMDPCNSSVGTIAYMSPERINTDLNQGKYDGYAGDIWSLGVSILEFYLGRFPFPVSRQGDWASLMCAICMSQPPEAPATASPEFRHFISCCLQREPGKRRSAMQLLQHPFILRASPSQNRSPQNLHQLLPPPRPLSSSSSPTT
binding [5]: binds

B4: MKK5 (nLUC fusion) (enzyme, UniProt Q8RXG3 1-348)
chain: MKPIQSPSGVASPMKNRLRKRPDLSLPLPHRDVALAVPLPLPPPSSSSSAPASSSAISTNISAAKSLSELERVNRIGSGAGGTVYKVIHTPTSRPFALKVIYGNHEDTVRRQICREIEILRSVDHPNVVKCHDMFDHNGEIQVLLEFMDQGSLEGAHIWQEQELADLSRQILSGLAYLHRRHIVHRDIKPSNLLINSAKNVKIADFGVSRILAQTMDPCNSSVGTIAYMSPERINTDLNHGRYDGYAGDVWSLGVSILEFYLGRFPFAVSRQGDWASLMCAICMSQPPEAPATASQEFRHFVSCCLQSDPPKRWSAQQLLQHPFILKATGGPNLRQMLPPPRPLPSAS
binding [5]: binds

Other lines, results leading:

binding [3]: no binding
Molecule: ILK6-cYFP (Arabidopsis thaliana) (enzyme)

binding [2]: no binding
Molecule: LRR-RK (split-luciferase fusion) (Arabidopsis thaliana) (receptor)

binding [4]: binds
Molecule: Myc-tagged ILK4 (Arabidopsis thaliana) (enzyme)

binding [6]: binds
B2: MKK4-nYFP (enzyme, UniProt O80397 1-366)
chain: B1 chain

binding [6]: no binding
B3: MKK8-nYFP (enzyme, UniProt Q9M8J5 1-309)
chain: MVMVRDNQFLNLKLSPIQAPTTIPPCRFPIIPATKVSATVSSCASNTFSVANLDRISVLGSGNGGTVFKVKDKTTSEIYALKKVKENWDSTSLREIEILRMVNSPYVAKCHDIFQNPSGEVSILMDYMDLGSLESLRGVTEKQLALMSRQVLEGKNYLHEHKIVHRDIKPANLLRSSKEEVKIADFGVSKIVVRSLNKCNSFVGTFAYMSPERLDSEADGVTEEDKSNVYAGDIWSFGLTMLEILVGYYPMLPDQAAIVCAVCFGEPPKAPEECSDDLKSFMDCCLRKKASERWTASQLLNHPFLLHQD

binding [6]: binds
B5: MKK5-nYFP (enzyme, UniProt Q8RXG3 1-348)
chain: B4 chain
